{"source": "PubChem BioAssay AID504808 – Drosophila RNAi Screening Center – 2011", "purpose": "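Genes whose loss lifts activity of an E2F-responsive reporter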 (primary screen)", "system": "Drosophila S2 cells", "knock-down reagent": "long dsRNA against Drosophila genes", "read-out": "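Firefly luciferase driven by E2F sites, normalised to Renilla luciferase on the same minimal promoter, measured by plate reader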", "scale": "E2F firefly: higher = more E2F reporter activity; Renilla normaliser: higher = more normaliser reporter signal", "call rule": "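a knock-down counted as active when the firefly/Renilla E2F signal rose above 50%, a threshold chosen arbitrarily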", "note": "The screen tested about 21,000 reagents; this is a random part of those that have a named target and a result. Over the whole deposit, 18 (0.084%) are marked active. 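Raw counts without plate normalisation, one of two replicates; the ratio scores behind the calls were not deposited.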 The record does not give: the amount of reagent, the time to read-out."}
{"target gene":"Sec16 (Secretory 16)","dsRNA":"DRSC19788","E2F firefly, rep 1":1.17e5,"Renilla normaliser, rep 1":5979,"Call":"inactive"}
{"target gene":"Sec16 (Secretory 16)","dsRNA":"DRSC19858","E2F firefly, rep 1":1.30e5,"Renilla normaliser, rep 1":6520,"Call":"inactive"}
{"target gene":"CG9799","dsRNA":"DRSC16567","E2F firefly, rep 1":83077,"Renilla normaliser, rep 1":4360,"Call":"inactive"}
{"target gene":"Sirt1 (Sirtuin 1)","dsRNA":"DRSC03435","E2F firefly, rep 1":67745,"Renilla normaliser, rep 1":3181,"Call":"inactive"}
{"target gene":"drn (doctor no)","dsRNA":"DRSC15147","E2F firefly, rep 1":1.17e5,"Renilla normaliser, rep 1":8150,"Call":"inactive"}
{"target gene":"Gbs-76A (Glycogen binding subunit 76A)","dsRNA":"DRSC11081","E2F firefly, rep 1":84271,"Renilla normaliser, rep 1":3569,"Call":"inactive"}
{"target gene":"Vm34Ca (Vitelline membrane 34Ca)","dsRNA":"DRSC03475","E2F firefly, rep 1":91775,"Renilla normaliser, rep 1":4743,"Call":"inactive"}
{"target gene":"Ubc7 (Ubiquitin conjugating enzyme 7)","dsRNA":"DRSC20299","E2F firefly, rep 1":1.61e5,"Renilla normaliser, rep 1":6848,"Call":"inactive"}
{"target gene":"wor (worniu)","dsRNA":"DRSC03637","E2F firefly, rep 1":1.14e5,"Renilla normaliser, rep 1":4725,"Call":"inactive"}
{"target gene":"CG13733","dsRNA":"DRSC10061","E2F firefly, rep 1":1.77e5,"Renilla normaliser, rep 1":7968,"Call":"inactive"}
{"target gene":"CG40485","dsRNA":"DRSC20624","E2F firefly, rep 1":1.19e5,"Renilla normaliser, rep 1":6385,"Call":"inactive"}
{"target gene":"Ipo9 (Importin 9)","dsRNA":"DRSC16813","E2F firefly, rep 1":1.58e5,"Renilla normaliser, rep 1":7225,"Call":"inactive"}
{"target gene":"NitFhit (Nitrilase and fragile histidine triad fusion protein)","dsRNA":"DRSC08680","E2F firefly, rep 1":94031,"Renilla normaliser, rep 1":4152,"Call":"inactive"}
{"target gene":"dnc (dunce)","dsRNA":"DRSC17758","E2F firefly, rep 1":1.00e5,"Renilla normaliser, rep 1":5937,"Call":"inactive"}
{"target gene":"dnc (dunce)","dsRNA":"DRSC17759","E2F firefly, rep 1":1.12e5,"Renilla normaliser, rep 1":5593,"Call":"inactive"}
{"target gene":"dnc (dunce)","dsRNA":"DRSC17911","E2F firefly, rep 1":1.31e5,"Renilla normaliser, rep 1":6270,"Call":"inactive"}
{"target gene":"dnc (dunce)","dsRNA":"DRSC18763","E2F firefly, rep 1":1.10e5,"Renilla normaliser, rep 1":5400,"Call":"inactive"}
{"target gene":"dnc (dunce)","dsRNA":"DRSC18764","E2F firefly, rep 1":1.10e5,"Renilla normaliser, rep 1":4790,"Call":"inactive"}
{"target gene":"serp (serpentine)","dsRNA":"DRSC11035","E2F firefly, rep 1":1.36e5,"Renilla normaliser, rep 1":7566,"Call":"inactive"}
{"target gene":"serp (serpentine)","dsRNA":"DRSC11036","E2F firefly, rep 1":1.43e5,"Renilla normaliser, rep 1":7185,"Call":"inactive"}
{"target gene":"14-3-3zeta","dsRNA":"DRSC05028","E2F firefly, rep 1":3425,"Renilla normaliser, rep 1":295,"Call":"inactive"}
{"target gene":"CG7423","dsRNA":"DRSC20044","E2F firefly, rep 1":1.32e5,"Renilla normaliser, rep 1":6272,"Call":"inactive"}
{"target gene":"CG12091","dsRNA":"DRSC08251","E2F firefly, rep 1":1.16e5,"Renilla normaliser, rep 1":4744,"Call":"inactive"}
{"target gene":"Su(var)205 (Suppressor of variegation 205)","dsRNA":"DRSC03446","E2F firefly, rep 1":82570,"Renilla normaliser, rep 1":3503,"Call":"inactive"}
{"target gene":"CG17219","dsRNA":"DRSC00486","E2F firefly, rep 1":1.42e5,"Renilla normaliser, rep 1":5235,"Call":"inactive"}
{"target gene":"Hnf4 (Hepatocyte nuclear factor 4)","dsRNA":"DRSC01032","E2F firefly, rep 1":1.41e5,"Renilla normaliser, rep 1":6966,"Call":"inactive"}
{"target gene":"Hnf4 (Hepatocyte nuclear factor 4)","dsRNA":"DRSC03344","E2F firefly, rep 1":44754,"Renilla normaliser, rep 1":3508,"Call":"inactive"}
{"target gene":"CG10086","dsRNA":"DRSC14183","E2F firefly, rep 1":1.37e5,"Renilla normaliser, rep 1":6130,"Call":"inactive"}
{"target gene":"CG13038","dsRNA":"DRSC09919","E2F firefly, rep 1":1.68e5,"Renilla normaliser, rep 1":6443,"Call":"inactive"}
{"target gene":"CG8519","dsRNA":"DRSC10985","E2F firefly, rep 1":95492,"Renilla normaliser, rep 1":3608,"Call":"inactive"}
{"target gene":"CG4497","dsRNA":"DRSC02754","E2F firefly, rep 1":96190,"Renilla normaliser, rep 1":4088,"Call":"inactive"}
{"target gene":"CG5953","dsRNA":"DRSC01546","E2F firefly, rep 1":1.40e5,"Renilla normaliser, rep 1":6549,"Call":"inactive"}
{"target gene":"CG5953","dsRNA":"DRSC02914","E2F firefly, rep 1":76611,"Renilla normaliser, rep 1":3582,"Call":"inactive"}
{"target gene":"B-H2 (BarH2)","dsRNA":"DRSC19335","E2F firefly, rep 1":86777,"Renilla normaliser, rep 1":4209,"Call":"inactive"}
{"target gene":"CG2082","dsRNA":"DRSC12125","E2F firefly, rep 1":64640,"Renilla normaliser, rep 1":3164,"Call":"inactive"}
{"target gene":"CG34195","dsRNA":"DRSC06909","E2F firefly, rep 1":1.50e5,"Renilla normaliser, rep 1":5351,"Call":"inactive"}
